Measurements from paper PMC8466577.
These are yes or no findings as the source states them, for the method shown. Binding seen in cells or lysates may run through a third protein. A result given as binding can be weak or reduced; the word gives no strength. One block for each molecule: values may come before it.

Key:
[1] = target: T1, THOC5 (human (endogenous in SKOV-3 and PC-3)) (UniProt Q13769); test: co-IP; small-scale IPs from PC-3 lysates (1 mg protein) with antibodies to THOC5, THOC2 or RAB11 on Protein G-Dynal beads, normal rabbit IgG as control; Western blot for THOC5, THOC2, SEPT2, SEPT7, RAB11, HMGB1
T1 sequence: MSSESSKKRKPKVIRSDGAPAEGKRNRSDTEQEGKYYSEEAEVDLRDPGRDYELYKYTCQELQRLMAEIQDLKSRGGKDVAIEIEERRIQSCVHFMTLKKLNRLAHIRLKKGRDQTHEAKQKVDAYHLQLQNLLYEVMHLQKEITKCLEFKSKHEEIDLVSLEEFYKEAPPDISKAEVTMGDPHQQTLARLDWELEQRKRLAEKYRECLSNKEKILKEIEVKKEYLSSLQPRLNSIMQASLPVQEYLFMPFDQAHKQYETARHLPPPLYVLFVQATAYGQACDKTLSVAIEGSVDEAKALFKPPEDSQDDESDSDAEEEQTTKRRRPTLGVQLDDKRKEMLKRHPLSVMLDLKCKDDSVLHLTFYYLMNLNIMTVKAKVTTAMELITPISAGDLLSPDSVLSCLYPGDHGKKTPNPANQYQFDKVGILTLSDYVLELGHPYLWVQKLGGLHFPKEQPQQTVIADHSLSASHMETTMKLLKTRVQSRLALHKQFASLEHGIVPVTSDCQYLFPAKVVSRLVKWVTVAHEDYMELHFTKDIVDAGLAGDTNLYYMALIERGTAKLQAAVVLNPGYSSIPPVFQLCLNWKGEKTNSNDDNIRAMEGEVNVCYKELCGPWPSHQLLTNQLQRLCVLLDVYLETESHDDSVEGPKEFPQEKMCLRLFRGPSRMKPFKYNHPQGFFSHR

[2] = target: RAB11 (human (endogenous in PC-3)); test: as above

binding [1]: binds
Molecule: RAB11 (human (endogenous in PC-3))

binding [2]: binds
B1: SEPT7 (protein, UniProt Q16181 1-437)
chain: MSVSARSAAAEERSVNSSTMVAQQKNLEGYVGFANLPNQVYRKSVKRGFEFTLMVVGESGLGKSTLINSLFLTDLYSPEYPGPSHRIKKTVQVEQSKVLIKEGGVQLLLTIVDTPGFGDAVDNSNCWQPVIDYIDSKFEDYLNAESRVNRRQMPDNRVQCCLYFIAPSGHGLKPLDIEFMKRLHEKVNIIPLIAKADTLTPEECQQFKKQIMKEIQEHKIKIYEFPETDDEEENKLVKKIKDRLPLAVVGSNTIIEVNGKRVRGRQYPWGVAEVENGEHCDFTILRNMLIRTHMQDLKDVTNNVHYENYRSRKLAAVTYNGVDNNKNKGQLTKSPLAQMEEERREHVAKMKKMEMEMEQVFEMKVKEKVQKLKDSEAELQRRHEQMKKNLEAQHKELEEKRRQFEDEKANWEAQQRILEQQNSSRTLEKNKKKGKIF

binding [2]: binds
B2: SEPT2 (protein, UniProt Q15019 1-361)
chain: MSKQQPTQFINPETPGYVGFANLPNQVHRKSVKKGFEFTLMVVGESGLGKSTLINSLFLTDLYPERVIPGAAEKIERTVQIEASTVEIEERGVKLRLTVVDTPGYGDAINCRDCFKTIISYIDEQFERYLHDESGLNRRHIIDNRVHCCFYFISPFGHGLKPLDVAFMKAIHNKVNIVPVIAKADTLTLKERERLKKRILDEIEEHNIKIYHLPDAESDEDEDFKEQTRLLKASIPFSVVGSNQLIEAKGKKVRGRLYPWGVVEVENPEHNDFLKLRTMLITHMQDLQEVTQDLHYENFRSERLKRGGRKVENEDMNKDQILLEKEAELRRMQEMIARMQAQMQMQMQGGDGDGGALGHHV
